Sequences and labels used below:
B1: glmS ribozyme (parent)
chain: AUAAAAGCGCCAGAACUACAGAAAUGUAGUUGACGAGGAGGAGGUUUAUCGAAUUUUCGGCGGAUGCCUCCAAA

± gives the standard error. The uncertainty is large for many entries.

The first data set covers variants of B1. The experiment in a line: kcat; higher = faster cleavage; RNA array. The following applies: with glucosamine-6-phosphate. The method in brief:
(§1)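 kobs was derived by fitting per-tile medians to one- or two-exponential decays after normalising signals to baseline and to non-cleaving reference variants. Those signals came from barcoded ribozyme variants transcribed in situ by E. coli RNA polymerase on sequenced MiSeq chips, followed through a hybridised Cy3 probe at 37 °C and imaged over ~14 h. Glucosamine-6-phosphate (40 μM to 10 mM) in HEPES/KCl/Mg(OAc)2 buffer was flowed in. Weighted Michaelis–Menten fits across concentrations then gave kcat and KM.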
U54A U55C: the kcat (in general, the number of substrate molecules converted per active site and unit of time at saturation) was found to be 0.00725 ± 0.0046 s⁻¹.

Turning to G44U U45A, the kcat came to 0.000658 ± 0.00016 s⁻¹.

Turning to C11U G29U G37C C70A, the kcat came to 3.52e-05 ± 2.9e-05 s⁻¹.

As for A12C G59A, the kcat is less than 1e-05 s⁻¹.

Take C11U U57A: the turnover number (kcat) was 1.44e-05 ± 2.1e-06 s⁻¹.

On to G9U A14G, for which the kcat came out at 1.09e-05 ± 5.1e-06 s⁻¹.

With U49C C70A, the kcat is less than 1e-05 s⁻¹.

As for U54G C71U, the turnover number (kcat) was found to be 0.0983 ± 0.071 s⁻¹.

Regarding G38A G63A, the kcat is less than 1e-05 s⁻¹.

Regarding U56G U65A, the kcat is 0.00479 ± 0.0029 s⁻¹.

As to G41A A53G, the turnover number (kcat) was 0.00248 ± 0.0013 s⁻¹.

On to G29C G38C, for which the kcat is 1.07e-05 ± 6.6e-06 s⁻¹.

In the case of C16U G37A U54C, the kcat came to 0.00248 ± 0.0013 s⁻¹.

As to G62U C68U, the kcat amounted to 1.22e-05 ± 1.2e-06 s⁻¹.

Consider G38A U65A, for which the turnover number (kcat) is less than 1e-05 s⁻¹.

Consider U57G U69C, for which the catalytic constant (kcat) worked out at 1.77e-05 ± 7.2e-06 s⁻¹.

As for U30A A39G, the catalytic constant (kcat) is 0.0194 ± 0.019 s⁻¹.

Take U45G G66C: the kcat turned out to be 0.00999 ± 0.0066 s⁻¹.

In the case of U69C C71A, the kcat was 0.000722 ± 0.00038 s⁻¹.

Take C58U C68G: the catalytic constant (kcat) stood at 5.58e-05 ± 2.9e-05 s⁻¹.

Turning to A48U C71A, the kcat was 0.000129 ± 1.2e-05 s⁻¹.

As to A15G U30G, the kcat stood at 0.0106 ± 0.007 s⁻¹.

U56A G66A: the kcat worked out at 0.00503 ± 0.0023 s⁻¹.

As for C11U G32A, the kcat amounted to 0.000453 ± 3.3e-05 s⁻¹.

For G7U G60A, the kcat is less than 1e-05 s⁻¹.

As to C50A C71A, the catalytic constant (kcat) was determined as 1.53e-05 ± 3.9e-06 s⁻¹.

A64U C70A: the kcat is 1.14e-05 ± 6.6e-06 s⁻¹.

Regarding A52C C71U, the kcat amounted to 1.4e-05 ± 5.1e-07 s⁻¹.

Take G38A G51A: the turnover number (kcat) is less than 1e-05 s⁻¹.

As to G37U C50U A64C C67A, the kcat was determined as 3.46e-05 ± 2e-05 s⁻¹.

Turning to A14C G26A, the catalytic constant (kcat) worked out at 0.00194 ± 0.00022 s⁻¹.

With G51U C70A, the catalytic constant (kcat) was 2.43e-05 ± 1.5e-05 s⁻¹.

Regarding C10U A36G, the kcat was less than 1e-05 s⁻¹.

As for A12U G29C, the kcat came out at 0.0301 ± 0.03 s⁻¹.

Take C16U U31A: the catalytic constant (kcat) is 0.0174 ± 0.01 s⁻¹.

Take G38U C70G: the kcat came out at 2.81e-05 ± 2.5e-05 s⁻¹.

Turning to U30A C68G, the turnover number (kcat) is 3.09e-05 ± 1.6e-05 s⁻¹.

As for A42G A48U, the catalytic constant (kcat) turned out to be 0.00077 ± 0.00015 s⁻¹.

As for A12U A48C, the turnover number (kcat) came out at 0.000932 ± 0.00088 s⁻¹.

Turning to A6U G51A, the kcat came out at 1.66e-05 ± 1.2e-05 s⁻¹.

Consider G66A C70G, for which the catalytic constant (kcat) was found to be 0.000217 ± 0.00018 s⁻¹.

With U45C A53U, the turnover number (kcat) stood at 0.0028 ± 0.0008 s⁻¹.

As for U30G A39G, the kcat was 0.0174 ± 0.01 s⁻¹.

Take G41A A64G: the catalytic constant (kcat) amounted to 0.00209 ± 0.00064 s⁻¹.

Take U31G U45A: the turnover number (kcat) amounted to 0.0285 ± 0.0073 s⁻¹.

With U31G U45G, the kcat was 0.00239 ± 0.00077 s⁻¹.

Variants of B1 are the subject of a further data set. The experiment in a line: KM; higher = weaker cofactor use; RNA array. The note with it: with glucosamine-6-phosphate. The method in brief: as §1
On to U54A U55C, for which the Michaelis constant (KM) – broadly, the concentration of substrate that gives half-maximal velocity – stood at 281 ± 270 µM.

Consider G44U U45A, for which the KM amounted to 1820 ± 740 µM.

With C11A A12G G13A A15C C16U U17A A18C C19A A20G G21A, the KM came out at 197 ± 200 µM.

As to C10U U56G, the KM is 839 ± 660 µM.

Take U54G C71U: the Michaelis-Menten constant (KM) is 6240 ± 5100 µM.

A6C A39C: the KM was found to be 2080 ± 1200 µM.

Turning to C10G G60U, the KM came out at 12800 ± 5700 µM.

With U56G U65A, the Michaelis constant (KM) amounted to 9160 ± 8200 µM.

For G41A A53G, the Michaelis-Menten constant (KM) turned out to be 1200 ± 1100 µM.

Take C16U G37A U54C: the KM worked out at 5570 ± 4500 µM.

Consider G62U C68U, for which the KM amounted to 170 ± 120 µM.

As for A12C C71U, the Michaelis-Menten constant (KM) came to 2270 ± 1200 µM.

Consider C11U G41A, for which the KM turned out to be 952 ± 500 µM.

Consider U45G G66C, for which the Michaelis-Menten constant (KM) was found to be 17700 ± 16000 µM.

For U69C C71A, the KM turned out to be 701 ± 580 µM.

Take A6G A15C: the KM worked out at 1700 ± 240 µM.

For A48U C71A, the Michaelis-Menten constant (KM) stood at 1380 ± 540 µM.

Consider A15G U30G, for which the KM came out at 2880 ± 2500 µM.

For the variant U56A G66A, the KM is 1560 ± 930 µM.

On to C11U G32U, for which the KM is 34800 ± 20000 µM.

C11U G32A: the KM came out at 1520 ± 290 µM.

Consider A52C C71U, for which the KM stood at 1650 ± 280 µM.

On to A14C G26A, for which the Michaelis constant (KM) came out at 1030 ± 190 µM.

On to A6G A12C, for which the KM is 9740 ± 5000 µM.

For A6G A12U, the Michaelis-Menten constant (KM) was 519 ± 280 µM.

As to C10U A36G, the Michaelis constant (KM) came out at 24.6 ± 15 µM.

Take C16U U31A: the KM is 2220 ± 1700 µM.

G7A U55A: the Michaelis constant (KM) is 34400 ± 4600 µM.

For the variant A42G A48U, the KM turned out to be 3220 ± 1100 µM.

As to C10U G32U, the Michaelis constant (KM) is 360 ± 220 µM.

For the variant C11U U31A, the KM was determined as 2380 ± 1800 µM.

With U45C A53U, the KM worked out at 4320 ± 1700 µM.

Take U30G A39G: the KM came out at 3490 ± 2700 µM.

C11A U30G: the KM was 6140 ± 920 µM.

For G41A A64G, the KM is 5950 ± 2800 µM.

For the variant U31G U45A, the KM came to 2180 ± 720 µM.

For U31G U45G, the Michaelis constant (KM) stood at 2930 ± 1500 µM.

The variants in another data set derive from B1. The data set can be described thus: self-cleavage kobs at 160 uM GlcN6P; higher = faster cleavage; RNA array. The following applies: with glucosamine-6-phosphate. In a few lines:
as §1
With G44U U45A, the “self-cleavage kobs at 160 uM GlcN6P” value is 3.57e-05 ± 2.4e-05 s⁻¹.

For the variant C50A C71A, the “self-cleavage kobs at 160 uM GlcN6P” value was 1.81e-05 ± 1.3e-05 s⁻¹.

For G51U C70A, the “self-cleavage kobs at 160 uM GlcN6P” value stood at 1.71e-05 ± 1.5e-05 s⁻¹.

For A6G A12U, the “self-cleavage kobs at 160 uM GlcN6P” value amounted to 1.58e-05 ± 1.5e-05 s⁻¹.

U30A C68G: the “self-cleavage kobs at 160 uM GlcN6P” value turned out to be 3.23e-05 ± 1.6e-05 s⁻¹.

In another data set the parent is B1. The data set can be described thus: self-cleavage kobs at 2500 uM GlcN6P; higher = faster cleavage; RNA array. The following applies: with glucosamine-6-phosphate. The method in brief: as §1
In the case of C11U U57A, the “self-cleavage kobs at 2500 uM GlcN6P” value was determined as 1.94e-05 ± 1.5e-05 s⁻¹.

Regarding U30A A39G, the “self-cleavage kobs at 2500 uM GlcN6P” value was 0.00385 ± 0.0029 s⁻¹.

As to A15G U30G, the “self-cleavage kobs at 2500 uM GlcN6P” value was found to be 0.00609 ± 0.0034 s⁻¹.

C11U G32U: the “self-cleavage kobs at 2500 uM GlcN6P” value came to 1.17e-05 ± 9.5e-06 s⁻¹.

With G38U C70G, the “self-cleavage kobs at 2500 uM GlcN6P” value was found to be 0.000507 ± 0.00034 s⁻¹.

Variants of B1 are the subject of the next data set. The data set can be described thus: self-cleavage kobs at 10000 uM GlcN6P; higher = faster cleavage; RNA array. The following applies: with glucosamine-6-phosphate. The method in brief:
as §1
C11U U57A: the “self-cleavage kobs at 10000 uM GlcN6P” value was found to be 1.24e-05 ± 9.4e-06 s⁻¹.

On to A52C C71U, for which the “self-cleavage kobs at 10000 uM GlcN6P” value was found to be 1.21e-05 ± 7.8e-06 s⁻¹.

For G38U C70G, the “self-cleavage kobs at 10000 uM GlcN6P” value is 2.27e-05 ± 1.2e-05 s⁻¹.

Regarding U30A C68G, the “self-cleavage kobs at 10000 uM GlcN6P” value amounted to 1.64e-05 ± 1e-05 s⁻¹.

As to G7A U55A, the “self-cleavage kobs at 10000 uM GlcN6P” value was determined as 2.01e-05 ± 1.1e-05 s⁻¹.

In a further data set the parent is B1. The experiment in a line: self-cleavage kobs at 40 uM GlcN6P; higher = faster cleavage; RNA array. The following applies: with glucosamine-6-phosphate. In a few lines: as §1
Consider C16U G37A U54C, for which the “self-cleavage kobs at 40 uM GlcN6P” value was 1.69e-05 ± 1.2e-05 s⁻¹.

Regarding U45G G66C, the “self-cleavage kobs at 40 uM GlcN6P” value is 3.82e-05 ± 2.3e-05 s⁻¹.

Take C58U C68G: the “self-cleavage kobs at 40 uM GlcN6P” value amounted to 2.08e-05 ± 1.4e-05 s⁻¹.

Regarding C11U U31A, the “self-cleavage kobs at 40 uM GlcN6P” value came to 1.4e-05 ± 1.3e-05 s⁻¹.

Take A12U A48C: the “self-cleavage kobs at 40 uM GlcN6P” value stood at 2.91e-05 ± 1.7e-05 s⁻¹.

On to U31G U45G, for which the “self-cleavage kobs at 40 uM GlcN6P” value was determined as 2.57e-05 ± 1.5e-05 s⁻¹.

The variants in the next data set derive from B1. The experiment in a line: self-cleavage kobs at 640 uM GlcN6P; higher = faster cleavage; RNA array. The following applies: with glucosamine-6-phosphate. In a few lines: as §1
Turning to A6G A15C, the “self-cleavage kobs at 640 uM GlcN6P” value was determined as 1.86e-05 ± 1.2e-05 s⁻¹.

Turning to A48U C71A, the “self-cleavage kobs at 640 uM GlcN6P” value came to 3.02e-05 ± 2.1e-05 s⁻¹.

For G37U C50U A64C C67A, the “self-cleavage kobs at 640 uM GlcN6P” value came to 4.81e-05 ± 3.4e-05 s⁻¹.

For the variant C10U G32U, the “self-cleavage kobs at 640 uM GlcN6P” value worked out at 2.76e-05 ± 1.6e-05 s⁻¹.

Turning to G41A A64G, the “self-cleavage kobs at 640 uM GlcN6P” value is 0.000127 ± 6.4e-05 s⁻¹.

The record behind these values is the supplement of paper PMC7125110.
